The record followed here is publication PMC4707158.

Protein sequences, listed by entry. Tags and fused reporters are not part of them.
UniProt Q9H4L4: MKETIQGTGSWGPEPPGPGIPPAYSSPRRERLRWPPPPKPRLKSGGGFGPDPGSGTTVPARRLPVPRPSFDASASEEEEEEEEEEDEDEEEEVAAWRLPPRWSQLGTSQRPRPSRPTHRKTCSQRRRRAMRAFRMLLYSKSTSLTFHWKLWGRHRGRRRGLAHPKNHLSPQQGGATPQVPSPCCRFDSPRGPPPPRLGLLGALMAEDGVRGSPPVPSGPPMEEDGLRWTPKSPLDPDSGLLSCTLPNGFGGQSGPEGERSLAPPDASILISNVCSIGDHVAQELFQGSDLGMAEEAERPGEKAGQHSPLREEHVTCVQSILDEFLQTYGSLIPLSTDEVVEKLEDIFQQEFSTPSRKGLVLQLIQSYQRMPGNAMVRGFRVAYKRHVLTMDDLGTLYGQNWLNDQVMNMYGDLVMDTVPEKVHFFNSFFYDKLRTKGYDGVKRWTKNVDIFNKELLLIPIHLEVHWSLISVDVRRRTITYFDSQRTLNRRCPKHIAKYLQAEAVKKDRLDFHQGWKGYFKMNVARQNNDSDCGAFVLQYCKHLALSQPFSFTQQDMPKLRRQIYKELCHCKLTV

These are yes or no findings as the source states them, for the method shown. In cells and extracts the contact can be indirect. These calls come from enrichment with a bait or labelling near it, and not all partners need be listed.

In this test the target is FLAG-SENP3 (UniProt Q9H4L4). The test is described as follows: affinity purification with mass spectrometry; 293T cells transfected with vector FLAG-pcDNA or FLAG-SENP3; co-IP with anti-FLAG antibody; gel silver stained, bands of approximately 100 kDa examined by MS; Table 1 lists the hits that were also increased in lysate of SENP3-transfected cells.

B1: PFKP (protein, UniProt Q01813 1-784)
chain: MDADDSRAPKGSLRKFLEHLSGAGKAIGVLTSGGDAQGMNAAVRAVVRMGIYVGAKVYFIYEGYQGMVDGGSNIAEADWESVSSILQVGGTIIGSARCQAFRTREGRLKAACNLLQRGITNLCVIGGDGSLTGANLFRKEWSGLLEELARNGQIDKEAVQKYAYLNVVGMVGSIDNDFCGTDMTIGTDSALHRIIEVVDAIMTTAQSHQRTFVLEVMGRHCGYLALVSALACGADWVFLPESPPEEGWEEQMCVKLSENRARKKRLNIIIVAEGAIDTQNKPITSEKIKELVVTQLGYDTRVTILGHVQRGGTPSAFDRILASRMGVEAVIALLEATPDTPACVVSLNGNHAVRLPLMECVQMTQDVQKAMDERRFQDAVRLRGRSFAGNLNTYKRLAIKLPDDQIPKTNCNVAVINVGAPAAGMNAAVRSAVRVGIADGHRMLAIYDGFDGFAKGQIKEIGWTDVGGWTGQGGSILGTKRVLPGKYLEEIATQMRTHSINALLIIGGFEAYLGLLELSAAREKHEEFCVPMVMVPATVSNNVPGSDFSIGADTALNTITDTCDRIKQSASGTKRRVFIIETMGGYCGYLANMGGLAAGADAAYIFEEPFDIRDLQSNVEHLTEKMKTTIQRGLVLRNESCSENYTTDFIYQLYSEEGKGVFDCRKNVLGHMQQGGAPSPFDRNFGTKISARAMEWITAKLKEARGRGKKFTTDDSICVLGISKRNVIFQPVAELKKQTDFEHRIPKEQWWLKLRPLMKILAKYKASYDVSDSGQLEHVQPWSV
In the case of B1, the binding result is “binds”.

B2: MAGED1 (protein, UniProt Q9Y5V3 1-778)
chain: MAQKMDCGAGLLGFQAEASVEDSALLMQTLMEAIQISEAPPTNQATAAASPQSSQPPTANEMADIQVSAAAARPKSAFKVQNATTKGPNGVYDFSQAHNAKDVPNTQPKAAFKSQNATPKGPNAAYDFSQAATTGELAANKSEMAFKAQNATTKVGPNATYNFSQSLNANDLANSRPKTPFKAWNDTTKAPTADTQTQNVNQAKMATSQADIETDPGISEPDGATAQTSADGSQAQNLESRTIIRGKRTRKINNLNVEENSSGDQRRAPLAAGTWRSAPVPVTTQNPPGAPPNVLWQTPLAWQNPSGWQNQTARQTPPARQSPPARQTPPAWQNPVAWQNPVIWPNPVIWQNPVIWPNPIVWPGPVVWPNPLAWQNPPGWQTPPGWQTPPGWQGPPDWQGPPDWPLPPDWPLPPDWPLPTDWPLPPDWIPADWPIPPDWQNLRPSPNLRPSPNSRASQNPGAAQPRDVALLQERANKLVKYLMLKDYTKVPIKRSEMLRDIIREYTDVYPEIIERACFVLEKKFGIQLKEIDKEEHLYILISTPESLAGILGTTKDTPKLGLLLVILGVIFMNGNRASEAVLWEALRKMGLRPGVRHPLLGDLRKLLTYEFVKQKYLDYRRVPNSNPPEYEFLWGLRSYHETSKMKVLRFIAEVQKRDPRDWTAQFMEAADEALDALDAAAAEAEARAEARTRMGIGDEAVSGPWSWDDIEFELLTWDEEGDFGDPWSRIPFTFWARYHQNARSRFPQTFAGPIIGPGGTASANFAANFGAIGFFWVE
B2: the binding result is listed as “binds”.

B3: TARS (protein, UniProt P26639 1-723)
chain: MFEEKASSPSGKMGGEEKPIGAGEEKQKEGGKKKNKEGSGDGGRAELNPWPEYIYTRLEMYNILKAEHDSILAEKAEKDSKPIKVTLPDGKQVDAESWKTTPYQIACGISQGLADNTVIAKVNNVVWDLDRPLEEDCTLELLKFEDEEAQAVYWHSSAHIMGEAMERVYGGCLCYGPPIENGFYYDMYLEEGGVSSNDFSSLEALCKKIIKEKQAFERLEVKKETLLAMFKYNKFKCRILNEKVNTPTTTVYRCGPLIDLCRGPHVRHTGKIKALKIHKNSSTYWEGKADMETLQRIYGISFPDPKMLKEWEKFQEEAKNRDHRKIGRDQELYFFHELSPGSCFFLPKGAYIYNALIEFIRSEYRKRGFQEVVTPNIFNSRLWMTSGHWQHYSENMFSFEVEKELFALKPMNCPGHCLMFDHRPRSWRELPLRLADFGVLHRNELSGALTGLTRVRRFQQDDAHIFCAMEQIEDEIKGCLDFLRTVYSVFGFSFKLNLSTRPEKFLGDIEVWDQAEKQLENSLNEFGEKWELNSGDGAFYGPKIDIQIKDAIGRYHQCATIQLDFQLPIRFNLTYVSHDGDDKKRPVIVHRAILGSVERMIAILTENYGGKWPFWLSPRQVMVVPVGPTCDEYAQKVRQQFHDAKFMADIDLDPGCTLNKKIRNAQLAQYNFILVVGEKEKISGTVNIRTRDNKVHGERTISETIERLQQLKEFRSKQAEEEF
In the case of B3, the binding entry was “binds”.

B4: ALDH18A1 (protein, UniProt P54886 1-795)
chain: MLSQVYRCGFQPFNQHLLPWVKCTTVFRSHCIQPSVIRHVRSWSNIPFITVPLSRTHGKSFAHRSELKHAKRIVVKLGSAVVTRGDECGLALGRLASIVEQVSVLQNQGREMMLVTSGAVAFGKQRLRHEILLSQSVRQALHSGQNQLKEMAIPVLEARACAAAGQSGLMALYEAMFTQYSICAAQILVTNLDFHDEQKRRNLNGTLHELLRMNIVPIVNTNDAVVPPAEPNSDLQGVNVISVKDNDSLAARLAVEMKTDLLIVLSDVEGLFDSPPGSDDAKLIDIFYPGDQQSVTFGTKSRVGMGGMEAKVKAALWALQGGTSVVIANGTHPKVSGHVITDIVEGKKVGTFFSEVKPAGPTVEQQGEMARSGGRMLATLEPEQRAEIIHHLADLLTDQRDEILLANKKDLEEAEGRLAAPLLKRLSLSTSKLNSLAIGLRQIAASSQDSVGRVLRRTRIAKNLELEQVTVPIGVLLVIFESRPDCLPQVAALAIASGNGLLLKGGKEAAHSNRILHLLTQEALSIHGVKEAVQLVNTREEVEDLCRLDKMIDLIIPRGSSQLVRDIQKAAKGIPVMGHSEGICHMYVDSEASVDKVTRLVRDSKCEYPAACNALETLLIHRDLLRTPLFDQIIDMLRVEQVKIHAGPKFASYLTFSPSEVKSLRTEYGDLELCIEVVDNVQDAIDHIHKYGSSHTDVIVTEDENTAEFFLQHVDSACVFWNASTRFSDGYRFGLGAEVGISTSRIHARGPVGLEGLLTTKWLLRGKDHVVSDFSEHGSLKYLHENLPIPQRNTN
Regarding B4, the binding result is on record as “binds”.

B5: GPHN (protein, UniProt Q9NQX3 1-736)
chain: MATEGMILTNHDHQIRVGVLTVSDSCFRNLAEDRSGINLKDLVQDPSLLGGTISAYKIVPDEIEEIKETLIDWCDEKELNLILTTGGTGFAPRDVTPEATKEVIEREAPGMALAMLMGSLNVTPLGMLSRPVCGIRGKTLIINLPGSKKGSQECFQFILPALPHAIDLLRDAIVKVKEVHDELEDLPSPPPPLSPPPTTSPHKQTEDKGVQCEEEEEEKKDSGVASTEDSSSSHITAAAIAAKIPDSIISRGVQVLPRDTASLSTTPSESPRAQATSRLSTASCPTPKVQSRCSSKENILRASHSAVDITKVARRHRMSPFPLTSMDKAFITVLEMTPVLGTEIINYRDGMGRVLAQDVYAKDNLPPFPASVKDGYAVRAADGPGDRFIIGESQAGEQPTQTVMPGQVMRVTTGAPIPCGADAVVQVEDTELIRESDDGTEELEVRILVQARPGQDIRPIGHDIKRGECVLAKGTHMGPSEIGLLATVGVTEVEVNKFPVVAVMSTGNELLNPEDDLLPGKIRDSNRSTLLATIQEHGYPTINLGIVGDNPDDLLNALNEGISRADVIITSGGVSMGEKDYLKQVLDIDLHAQIHFGRVFMKPGLPTTFATLDIDGVRKIIFALPGNPVSAVVTCNLFVVPALRKMQGILDPRPTIIKARLSCDVKLDPRPEYHRCILTWHHQEPLPWAQSTGNQMSSRLMSMRSANGLLMLPPKTEQYVELHKGEVVDVMVIGRL
For the molecule B5, the binding entry was “binds”.
